These results are taken from paper PMC10164911.

Protein sequences, listed by entry. Tags and fused reporters are not part of them.
UniProt Q99250: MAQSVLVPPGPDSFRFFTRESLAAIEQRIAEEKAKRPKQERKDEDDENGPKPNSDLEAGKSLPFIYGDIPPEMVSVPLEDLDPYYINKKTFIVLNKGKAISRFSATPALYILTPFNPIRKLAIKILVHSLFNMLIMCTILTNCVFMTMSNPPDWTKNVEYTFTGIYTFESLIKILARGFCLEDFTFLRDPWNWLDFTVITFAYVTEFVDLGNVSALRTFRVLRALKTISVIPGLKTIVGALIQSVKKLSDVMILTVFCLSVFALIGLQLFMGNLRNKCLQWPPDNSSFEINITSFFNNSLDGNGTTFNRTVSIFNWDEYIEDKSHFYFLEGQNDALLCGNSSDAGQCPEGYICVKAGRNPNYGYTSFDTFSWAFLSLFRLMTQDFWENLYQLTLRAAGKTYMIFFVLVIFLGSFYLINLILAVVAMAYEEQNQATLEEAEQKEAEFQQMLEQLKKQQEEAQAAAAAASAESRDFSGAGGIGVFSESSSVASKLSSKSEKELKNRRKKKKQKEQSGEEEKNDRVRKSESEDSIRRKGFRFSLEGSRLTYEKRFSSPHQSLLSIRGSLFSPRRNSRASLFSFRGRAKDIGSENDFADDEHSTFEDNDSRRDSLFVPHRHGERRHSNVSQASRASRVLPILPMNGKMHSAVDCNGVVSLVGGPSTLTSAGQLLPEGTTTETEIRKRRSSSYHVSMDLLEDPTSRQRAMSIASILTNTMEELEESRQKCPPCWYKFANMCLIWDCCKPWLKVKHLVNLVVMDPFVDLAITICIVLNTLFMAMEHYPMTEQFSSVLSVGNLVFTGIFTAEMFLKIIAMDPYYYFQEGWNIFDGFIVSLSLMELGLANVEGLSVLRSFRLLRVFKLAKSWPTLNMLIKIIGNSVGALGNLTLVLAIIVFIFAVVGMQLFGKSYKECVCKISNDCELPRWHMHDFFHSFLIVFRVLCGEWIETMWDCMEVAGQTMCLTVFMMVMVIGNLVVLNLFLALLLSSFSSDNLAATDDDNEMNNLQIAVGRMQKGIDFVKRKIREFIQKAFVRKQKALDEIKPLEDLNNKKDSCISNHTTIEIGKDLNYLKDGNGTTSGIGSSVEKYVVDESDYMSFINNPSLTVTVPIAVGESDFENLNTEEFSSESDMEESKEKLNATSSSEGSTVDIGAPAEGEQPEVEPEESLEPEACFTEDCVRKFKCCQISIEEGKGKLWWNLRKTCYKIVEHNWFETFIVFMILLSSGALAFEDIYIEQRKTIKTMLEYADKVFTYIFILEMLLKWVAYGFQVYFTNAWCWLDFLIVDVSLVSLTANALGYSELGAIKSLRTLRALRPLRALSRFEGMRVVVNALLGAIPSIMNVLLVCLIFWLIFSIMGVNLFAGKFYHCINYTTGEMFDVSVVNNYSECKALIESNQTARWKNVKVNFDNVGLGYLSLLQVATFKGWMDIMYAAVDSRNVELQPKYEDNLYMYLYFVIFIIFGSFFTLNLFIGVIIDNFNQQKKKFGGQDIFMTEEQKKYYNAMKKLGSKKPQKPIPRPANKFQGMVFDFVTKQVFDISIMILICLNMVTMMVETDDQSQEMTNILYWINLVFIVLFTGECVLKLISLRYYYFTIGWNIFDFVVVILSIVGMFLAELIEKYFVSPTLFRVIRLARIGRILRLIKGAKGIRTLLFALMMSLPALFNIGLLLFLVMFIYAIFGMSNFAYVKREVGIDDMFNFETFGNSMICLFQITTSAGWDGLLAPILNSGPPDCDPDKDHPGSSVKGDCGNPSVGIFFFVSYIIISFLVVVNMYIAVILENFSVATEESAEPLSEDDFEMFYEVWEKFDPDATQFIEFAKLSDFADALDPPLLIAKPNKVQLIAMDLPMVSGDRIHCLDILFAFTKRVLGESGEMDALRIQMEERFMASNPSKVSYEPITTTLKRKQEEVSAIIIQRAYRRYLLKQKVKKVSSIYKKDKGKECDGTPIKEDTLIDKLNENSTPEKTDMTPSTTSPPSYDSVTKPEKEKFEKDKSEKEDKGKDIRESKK

No constants are given. Whether binding was seen depends on the method and setting. In cells and extracts the contact can be indirect. Some binding calls cover weakened binding; strength is not graded here. Sequences can lack the tags named with a protein.

For this test, the target named is T1, PRRT2-HA (full-length proline-rich transmembrane protein 2 with 3XHA tag) (human) (UniProt Q7Z6L0).
T1 sequence: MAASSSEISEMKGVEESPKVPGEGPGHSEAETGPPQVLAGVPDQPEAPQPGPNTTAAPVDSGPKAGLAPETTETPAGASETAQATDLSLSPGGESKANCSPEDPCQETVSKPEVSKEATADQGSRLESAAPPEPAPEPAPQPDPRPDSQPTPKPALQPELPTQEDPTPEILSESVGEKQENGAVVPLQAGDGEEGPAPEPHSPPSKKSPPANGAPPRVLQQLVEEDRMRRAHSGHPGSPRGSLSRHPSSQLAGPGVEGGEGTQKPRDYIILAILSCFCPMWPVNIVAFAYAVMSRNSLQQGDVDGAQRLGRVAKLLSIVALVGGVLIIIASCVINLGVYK
The test is described as follows: pull-down; HA-tagged PRRT2 variants from naive Hek293 lysate held on anti-HA-agarose beads, washed, then incubated with extracts of Hek293 clones expressing Nav1.2 or Nav1.1 for 2 h at 4 °C; lysis buffer 150 mM NaCl, 50 mM Tris, 1 mM EDTA, 1% Triton X-100; Western blot with pan-Nav and HA …; only the target purified. In general terms: Immunoblotting shows a protein as a band on a membrane.

Regarding “Nav1.2 α-subunit (voltage-dependent Na+ channel) (from UniProt Q99250 1-2005)”, the binding result is on record as “binds”.
